The results in this text go back to the supplement of paper PMC4635364.

Structures can show the parent of a compound that is named as a salt. The list shows a part of the results. Repeats in this data set agree poorly, so a single value says little.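 ReNCell VM, a human fetal ventral-midbrain neural progenitor line, was differentiated without mitogens. Blinded raters scored images stained for doublecortin (early neurons) or tyrosine hydroxylase (dopaminergic neurons) against untreated wells (0 = no change). Scores were averaged across repeats and both raters, and compounds averaging 2 or more were selected as hits for retesting.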

Test [1] relates to ReNCell VM. Put plainly: neuronal differentiation score (DCX+ cell fraction vs untreated, manual image score) (score (-3 to 3)); higher = more neuronal differentiation. Conditions: 2 uM, 2 weeks.
The test system of test [2] is ReNCell VM. The test is described as follows: dopaminergic neuron differentiation score (TH+ cell fraction vs untreated, manual image score) (score (0 to 3)); higher = more TH+ dopaminergic neuron differentiation. Conditions: 2 uM, 4 weeks, BDNF 10 ng/ml + GDNF 10 ng/ml.

Take `CC(C)(C)NC[C@H](O)c1ccc(O)c(CO)c1`: in the test on ReNCell VM [1] (library: Spectrum), the neuronal differentiation score was inactive: 0. Moreover, the “dopaminergic neuron differentiation score” value with ReNCell VM [2] (library: Spectrum) is inactive: 0.
As for `NC(C(=O)O)c1ccc(C(=O)O)c(C(=O)O)c1` (racemic), the neuronal differentiation score in the test on ReNCell VM [1] (library: Tocriscreen) is inactive: 1. Besides, in the test with ReNCell VM [2] (library: Tocriscreen), the “dopaminergic neuron differentiation score” value is inactive: 0.
On to `CC(=O)c1ccc2c(c1)N(CCCN(C)C)c1ccccc1S2` [Acetopromazine maleate salt], for which, in the test with ReNCell VM [1] (library: Prestwick), the neuronal differentiation score is inactive: 0. For the same molecule, in the test on ReNCell VM [2] (library: Prestwick), the “dopaminergic neuron differentiation score” value was inactive: 0.
Take `COc1ccc2c(c1)c(CC(=O)OCC(=O)O)c(C)n2C(=O)c1ccc(Cl)cc1` [Acemetacin]: the neuronal differentiation score in the test on ReNCell VM [1] (library: Prestwick) is inactive: 0. Besides, the “dopaminergic neuron differentiation score” value in the test with ReNCell VM [2] (library: Prestwick) is inactive: 0.
In the case of `OC[C@H]1O[C@@H](c2nc3cc(Cl)c(Cl)cc3[nH]2)[C@H](O)[C@@H]1O` [D-ribofuranosylbenzimidazole], in the test on ReNCell VM [1] (library: LOPAC), the neuronal differentiation score was inactive: 0. Further, the “dopaminergic neuron differentiation score” value with ReNCell VM [2] (library: LOPAC) was inactive: 0.
For `O=c1cc(-c2cc3ccccc3oc2=O)c2ccc(O)cc2o1` [7'-Hydroxy-[3,4']bichromenyl-2,2'-dione], the neuronal differentiation score in the test on ReNCell VM [1] (library: Natural) is inactive: 0. For the same molecule, the “dopaminergic neuron differentiation score” value with ReNCell VM [2] (library: Natural) is inactive: 0.
For the molecule `CCC(CCC(C)C1CCC2C3CCC4CC(O)CCC4(C)C3CCC12C)C(C)C` (configuration not stated), the neuronal differentiation score in the test with ReNCell VM [1] (library: Spectrum) is inactive: 0. In addition, the “dopaminergic neuron differentiation score” value with ReNCell VM [2] (library: Spectrum) is inactive: 0.
Consider `C[C@]12C=CC(=O)C=C1CC[C@@H]1[C@@H]2C(=O)C[C@@]2(C)[C@H]1CC[C@]2(O)C(=O)CO` [Prednisone], for which, in the test on ReNCell VM [1] (library: Prestwick), the neuronal differentiation score is inactive: 0. Also, in the test with ReNCell VM [2] (library: Prestwick), the “dopaminergic neuron differentiation score” value was inactive: 0.
`Cc1ccc(S(=O)(=O)NC(=O)NN2CC3CCCC3C2)cc1` (configuration not stated) [Gliclazide]: in the test with ReNCell VM [1] (library: Prestwick), the neuronal differentiation score was inactive: 0. For the same molecule, the “dopaminergic neuron differentiation score” value with ReNCell VM [2] (library: Prestwick) was inactive: 0.
On to `CC[C@H](/C=C/[C@@H](C)[C@H]1CC[C@H]2[C@@H]3CCC4=CC(=O)CC[C@]4(C)[C@H]3CC[C@]12C)C(C)C`, for which the neuronal differentiation score in the test on ReNCell VM [1] (library: Spectrum) was inactive: 0. Moreover, the “dopaminergic neuron differentiation score” value in the test on ReNCell VM [2] (library: Spectrum) is inactive: 0.
For `O=C([O-])[C@H]1/C(=C/CO)O[C@@H]2CC(=O)N21.[Li+]`, the neuronal differentiation score in the test with ReNCell VM [1] (library: Spectrum) is inactive: 0. Besides, the “dopaminergic neuron differentiation score” value in the test with ReNCell VM [2] (library: Spectrum) was inactive: 0.
As for `CNC(=C[N+](=O)[O-])NCCSCc1csc(CN(C)C)n1`, the neuronal differentiation score in the test on ReNCell VM [1] (library: Spectrum) is inactive: 0. The “dopaminergic neuron differentiation score” value with ReNCell VM [2] (library: Spectrum) was inactive: 0.
Turning to `COc1cc(O)c(C(=O)/C=C/c2ccc(O)c(OC)c2)c(OC)c1`, the neuronal differentiation score with ReNCell VM [1] (library: Spectrum) was inactive: 0. The “dopaminergic neuron differentiation score” value in the test on ReNCell VM [2] (library: Spectrum) was inactive: 0.
Take `c1ccc2c(c1)CCC[C@H]2Nc1nc2ccccc2[nH]1` [NS8593 hydrochloride]: the neuronal differentiation score in the test on ReNCell VM [1] (library: LOPAC) is inactive: 0. In addition, the “dopaminergic neuron differentiation score” value in the test on ReNCell VM [2] (library: LOPAC) was inactive: 0.
Take `NC[C@H]1O[C@H](O[C@H]2[C@H](O[C@@H]3O[C@H](CO)[C@@H](O)[C@H]3O)[C@@H](O)[C@H](N)C[C@@H]2N)[C@H](N)[C@@H](O)[C@@H]1O` [Ribostamycin sulfate salt]: in the test on ReNCell VM [1] (library: Prestwick), the neuronal differentiation score is inactive: 0. In the test on ReNCell VM [2] (library: Prestwick), the “dopaminergic neuron differentiation score” value is inactive: 0.
Take `C[C@]12CC[C@@H](O)C[C@H]1CCc1ccccc12` [3alpha-HYDROXY-4,4-BISNOR-8,11,13-PODOCARPATRIENE]: the neuronal differentiation score in the test with ReNCell VM [1] (library: Spectrum) is inactive: 0. Further, the “dopaminergic neuron differentiation score” value in the test on ReNCell VM [2] (library: Spectrum) is inactive: 0.
With `C[C@]12C=CC(=O)C=C1CC[C@@H]1[C@@H]2[C@@H](O)C[C@@]2(C)[C@H]1CC[C@]2(O)C(=O)CO` [Prednisolone], the neuronal differentiation score with ReNCell VM [1] (library: Prestwick) was inactive: 0. For the same molecule, the “dopaminergic neuron differentiation score” value in the test with ReNCell VM [2] (library: Prestwick) is inactive: 0.
Take `C[C@@H]1CC[C@@]2(OC1)O[C@H]1C[C@H]3[C@@H]4CC=C5C[C@@H](O)CC[C@]5(C)[C@H]4CC[C@]3(C)[C@H]1[C@@H]2C`: the neuronal differentiation score with ReNCell VM [1] (library: Spectrum) was inactive: 0. Also, the “dopaminergic neuron differentiation score” value in the test on ReNCell VM [2] (library: Spectrum) was inactive: 0.
For the molecule `COc1ccc2cc3[n+](cc2c1OC)CCc1cc2c(cc1-3)OCO2`, the neuronal differentiation score in the test with ReNCell VM [1] (library: Spectrum) was inactive: 0. Further, in the test on ReNCell VM [2] (library: Spectrum), the “dopaminergic neuron differentiation score” value was inactive: 0.
For the molecule `CC(C)NCC(O)c1ccc2ccccc2c1` (configuration not stated), in the test with ReNCell VM [1] (library: Spectrum), the neuronal differentiation score is inactive: 0. For the same molecule, in the test with ReNCell VM [2] (library: Spectrum), the “dopaminergic neuron differentiation score” value was inactive: 0.
Consider `CN1CCCC(n2nc(Cc3ccc(Cl)cc3)c3ccccc3c2=O)CC1` (configuration not stated) [Azelastine HCl], for which the neuronal differentiation score with ReNCell VM [1] (library: Prestwick) is inactive: 0. Also, the “dopaminergic neuron differentiation score” value in the test with ReNCell VM [2] (library: Prestwick) is inactive: 0.
As for `CCCN(CCC)C(=O)C(CCC(=O)O)NC(=O)c1ccccc1` (configuration not stated), the neuronal differentiation score in the test on ReNCell VM [1] (library: Spectrum) was inactive: 0. Moreover, the “dopaminergic neuron differentiation score” value in the test on ReNCell VM [2] (library: Spectrum) was inactive: 0.
Take `O=c1cc(-c2ccccc2)oc2cc(O)c(O)c(O)c12`: in the test with ReNCell VM [1] (library: Spectrum), the neuronal differentiation score is inactive: 0. In addition, the “dopaminergic neuron differentiation score” value with ReNCell VM [2] (library: Spectrum) was inactive: 0.
For the molecule `O=C(O)c1ccccc1OP(=O)(O)O` [Fosfosal], the neuronal differentiation score with ReNCell VM [1] (library: Prestwick) was inactive: 0. In the test on ReNCell VM [2] (library: Prestwick), the “dopaminergic neuron differentiation score” value is inactive: 0.
For the molecule `CC(=O)Oc1cc(C(C)C)c(OCCN(C)C)cc1C` [Moxisylyte hydrochloride], in the test on ReNCell VM [1] (library: LOPAC), the neuronal differentiation score is inactive: 0. Besides, in the test with ReNCell VM [2] (library: LOPAC), the “dopaminergic neuron differentiation score” value was inactive: 0.
With `COC(=O)[C@H](c1ccccc1Cl)N1CCc2sccc2C1`, in the test with ReNCell VM [1] (library: Spectrum), the neuronal differentiation score is inactive: 0. The “dopaminergic neuron differentiation score” value in the test with ReNCell VM [2] (library: Spectrum) is inactive: 0.
With `CN(C)[C@@H]1C(O)=C(C(N)=O)C(=O)[C@@]2(O)C(O)=C3C(=O)c4c(O)ccc(Cl)c4[C@@](C)(O)[C@H]3C[C@@H]12`, in the test with ReNCell VM [1] (library: Spectrum), the neuronal differentiation score was inactive: 0. For the same molecule, in the test on ReNCell VM [2] (library: Spectrum), the “dopaminergic neuron differentiation score” value is inactive: 0.
Turning to `C=C[C@@]1(C)CC(=O)[C@]2(O)[C@@]3(C)[C@@H](O)CCC(C)(C)[C@@H]3[C@H](O)[C@H](OC(C)=O)[C@@]2(C)O1`, the neuronal differentiation score with ReNCell VM [1] (library: Spectrum) was inactive: 0. The “dopaminergic neuron differentiation score” value with ReNCell VM [2] (library: Spectrum) was inactive: 0.
Take `CN(C)CCc1c[nH]c2ccc(CS(=O)(=O)N3CCCC3)cc12`: the neuronal differentiation score with ReNCell VM [1] (library: Spectrum) was inactive: 0. Moreover, the “dopaminergic neuron differentiation score” value in the test with ReNCell VM [2] (library: Spectrum) was inactive: 0.
Regarding `Cc1nc2n(c(=O)c1CCN1CCC(c3noc4cc(F)ccc34)CC1)CCCC2O` (configuration not stated), the neuronal differentiation score in the test on ReNCell VM [1] (library: Spectrum) was inactive: 0. Also, the “dopaminergic neuron differentiation score” value in the test on ReNCell VM [2] (library: Spectrum) is inactive: 0.
Take `Cc1cccc(Nc2ccncc2S(=O)(=O)NC(=O)NC(C)C)c1` [Torsemide]: the neuronal differentiation score in the test with ReNCell VM [1] (library: Prestwick) was inactive: 0. The “dopaminergic neuron differentiation score” value with ReNCell VM [2] (library: Prestwick) is inactive: 0.
